In the supplement of paper PMC12823440, “Inhibitors supercharge kinase turnover through native proteolytic circuits” (Nature, 2025):
Structures can show the parent of a compound that is named as a salt. Some of the results follow. Hit calls seldom repeat between salt and free forms of one compound.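 In K562 cells expressing nanoluciferase-fused kinases, luminescence was recorded at 4 h intervals between 2 and 18 h, normalized as percent of control with DMSO at 100% and a positive control at 0%. A significant (2 sigma) signal drop marks a time point as decreased. The authors' rule for a hit is not shown and takes in more than the number of time points.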

Amino acid sequences for entries named in this document (tags omitted). A change or cut given only in a name is not applied to a line headed by its entry.
UniProt P31749: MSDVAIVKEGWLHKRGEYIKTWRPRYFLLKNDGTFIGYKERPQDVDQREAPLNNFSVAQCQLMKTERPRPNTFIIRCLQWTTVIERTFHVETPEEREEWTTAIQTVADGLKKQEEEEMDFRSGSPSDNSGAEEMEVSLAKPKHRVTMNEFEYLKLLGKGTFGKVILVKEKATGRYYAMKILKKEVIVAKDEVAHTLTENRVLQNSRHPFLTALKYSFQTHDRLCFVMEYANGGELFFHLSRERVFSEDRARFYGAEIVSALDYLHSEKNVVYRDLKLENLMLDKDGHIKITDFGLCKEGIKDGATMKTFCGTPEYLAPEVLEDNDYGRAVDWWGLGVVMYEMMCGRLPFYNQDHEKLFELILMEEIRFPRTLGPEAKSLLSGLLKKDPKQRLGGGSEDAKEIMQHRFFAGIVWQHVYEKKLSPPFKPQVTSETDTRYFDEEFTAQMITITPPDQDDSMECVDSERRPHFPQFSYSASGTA
UniProt P10398: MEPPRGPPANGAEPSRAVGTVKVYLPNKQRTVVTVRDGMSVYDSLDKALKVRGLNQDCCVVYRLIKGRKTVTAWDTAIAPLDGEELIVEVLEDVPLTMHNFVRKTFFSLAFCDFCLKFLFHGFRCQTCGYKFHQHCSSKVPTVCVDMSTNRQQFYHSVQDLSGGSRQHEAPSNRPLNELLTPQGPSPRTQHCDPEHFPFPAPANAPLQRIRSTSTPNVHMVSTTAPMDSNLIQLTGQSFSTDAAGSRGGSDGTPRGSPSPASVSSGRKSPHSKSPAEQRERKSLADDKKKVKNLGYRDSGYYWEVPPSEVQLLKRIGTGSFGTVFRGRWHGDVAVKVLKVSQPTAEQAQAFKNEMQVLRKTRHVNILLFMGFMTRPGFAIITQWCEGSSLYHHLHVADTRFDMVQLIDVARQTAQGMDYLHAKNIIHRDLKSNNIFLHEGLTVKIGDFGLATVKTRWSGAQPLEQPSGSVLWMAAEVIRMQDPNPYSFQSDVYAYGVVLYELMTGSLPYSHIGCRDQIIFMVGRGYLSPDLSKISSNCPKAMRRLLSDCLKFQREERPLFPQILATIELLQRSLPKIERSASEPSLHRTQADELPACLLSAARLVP
UniProt O14965: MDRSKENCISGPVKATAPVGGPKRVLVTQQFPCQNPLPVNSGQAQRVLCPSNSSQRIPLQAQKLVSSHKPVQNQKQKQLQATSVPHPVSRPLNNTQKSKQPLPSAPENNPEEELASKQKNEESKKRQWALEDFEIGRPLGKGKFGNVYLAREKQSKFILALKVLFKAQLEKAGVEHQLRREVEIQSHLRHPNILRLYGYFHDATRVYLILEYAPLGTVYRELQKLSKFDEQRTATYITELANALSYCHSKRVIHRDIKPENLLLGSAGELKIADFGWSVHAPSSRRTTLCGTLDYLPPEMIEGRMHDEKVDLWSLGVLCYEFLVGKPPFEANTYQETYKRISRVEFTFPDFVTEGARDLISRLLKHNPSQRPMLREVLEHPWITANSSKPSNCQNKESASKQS
UniProt Q96GD4, whole entry: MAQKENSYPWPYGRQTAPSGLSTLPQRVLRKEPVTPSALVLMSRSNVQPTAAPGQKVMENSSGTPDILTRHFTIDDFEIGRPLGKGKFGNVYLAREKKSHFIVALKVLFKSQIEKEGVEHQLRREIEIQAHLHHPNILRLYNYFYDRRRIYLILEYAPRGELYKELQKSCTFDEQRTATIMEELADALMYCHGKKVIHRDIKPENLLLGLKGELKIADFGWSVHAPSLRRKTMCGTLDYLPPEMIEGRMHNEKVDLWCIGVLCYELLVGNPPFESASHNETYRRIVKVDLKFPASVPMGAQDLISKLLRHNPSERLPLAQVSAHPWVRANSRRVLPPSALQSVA
UniProt P51451: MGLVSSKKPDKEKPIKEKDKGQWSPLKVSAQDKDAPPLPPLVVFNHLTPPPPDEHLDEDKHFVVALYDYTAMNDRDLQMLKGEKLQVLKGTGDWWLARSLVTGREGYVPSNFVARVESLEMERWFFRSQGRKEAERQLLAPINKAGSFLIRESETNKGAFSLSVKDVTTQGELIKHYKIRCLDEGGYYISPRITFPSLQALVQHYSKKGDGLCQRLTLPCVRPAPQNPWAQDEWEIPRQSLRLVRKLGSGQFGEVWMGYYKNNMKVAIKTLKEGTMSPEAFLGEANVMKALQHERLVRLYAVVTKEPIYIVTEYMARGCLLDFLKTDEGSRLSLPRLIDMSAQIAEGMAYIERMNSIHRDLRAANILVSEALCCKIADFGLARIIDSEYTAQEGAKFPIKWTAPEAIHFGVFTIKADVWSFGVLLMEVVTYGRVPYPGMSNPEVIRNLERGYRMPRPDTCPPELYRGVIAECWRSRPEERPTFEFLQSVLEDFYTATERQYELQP
UniProt P51813: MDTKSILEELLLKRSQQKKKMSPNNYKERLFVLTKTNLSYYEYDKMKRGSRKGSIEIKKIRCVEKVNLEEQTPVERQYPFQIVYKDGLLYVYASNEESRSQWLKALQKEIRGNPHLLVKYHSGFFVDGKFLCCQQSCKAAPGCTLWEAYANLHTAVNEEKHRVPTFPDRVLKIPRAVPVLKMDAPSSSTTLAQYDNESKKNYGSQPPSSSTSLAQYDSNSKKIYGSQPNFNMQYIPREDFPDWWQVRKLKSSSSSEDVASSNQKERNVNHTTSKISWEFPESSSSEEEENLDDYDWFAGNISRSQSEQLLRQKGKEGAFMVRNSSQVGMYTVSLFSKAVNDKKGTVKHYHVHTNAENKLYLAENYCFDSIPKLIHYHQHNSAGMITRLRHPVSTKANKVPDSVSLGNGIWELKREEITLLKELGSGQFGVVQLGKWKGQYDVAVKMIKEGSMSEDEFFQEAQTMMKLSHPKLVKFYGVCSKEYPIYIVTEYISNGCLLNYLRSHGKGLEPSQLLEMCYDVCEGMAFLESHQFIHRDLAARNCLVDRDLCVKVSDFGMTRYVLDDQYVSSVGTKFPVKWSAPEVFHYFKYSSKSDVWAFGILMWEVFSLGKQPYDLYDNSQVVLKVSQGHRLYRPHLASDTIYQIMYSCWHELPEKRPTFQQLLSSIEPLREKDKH
UniProt P15056, whole entry, looked up: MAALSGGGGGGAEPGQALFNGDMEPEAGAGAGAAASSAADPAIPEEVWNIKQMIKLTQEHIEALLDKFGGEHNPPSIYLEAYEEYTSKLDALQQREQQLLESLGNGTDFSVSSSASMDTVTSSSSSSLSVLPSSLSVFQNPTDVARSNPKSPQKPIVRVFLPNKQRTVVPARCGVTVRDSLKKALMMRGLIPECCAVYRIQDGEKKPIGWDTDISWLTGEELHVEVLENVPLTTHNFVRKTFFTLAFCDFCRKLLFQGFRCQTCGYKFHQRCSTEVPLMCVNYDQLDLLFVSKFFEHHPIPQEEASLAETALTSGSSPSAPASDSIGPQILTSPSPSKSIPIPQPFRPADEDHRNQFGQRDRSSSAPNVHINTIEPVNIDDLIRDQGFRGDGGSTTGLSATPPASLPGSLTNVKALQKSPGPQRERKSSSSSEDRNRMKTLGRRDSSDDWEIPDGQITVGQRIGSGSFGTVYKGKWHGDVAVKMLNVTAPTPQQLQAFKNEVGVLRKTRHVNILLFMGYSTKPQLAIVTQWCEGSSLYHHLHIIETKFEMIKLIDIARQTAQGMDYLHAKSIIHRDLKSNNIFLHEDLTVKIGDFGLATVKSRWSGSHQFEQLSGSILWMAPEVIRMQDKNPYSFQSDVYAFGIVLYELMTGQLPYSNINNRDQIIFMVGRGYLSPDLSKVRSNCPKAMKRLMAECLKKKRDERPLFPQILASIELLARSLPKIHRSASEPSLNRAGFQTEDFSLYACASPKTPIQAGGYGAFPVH
UniProt Q06187: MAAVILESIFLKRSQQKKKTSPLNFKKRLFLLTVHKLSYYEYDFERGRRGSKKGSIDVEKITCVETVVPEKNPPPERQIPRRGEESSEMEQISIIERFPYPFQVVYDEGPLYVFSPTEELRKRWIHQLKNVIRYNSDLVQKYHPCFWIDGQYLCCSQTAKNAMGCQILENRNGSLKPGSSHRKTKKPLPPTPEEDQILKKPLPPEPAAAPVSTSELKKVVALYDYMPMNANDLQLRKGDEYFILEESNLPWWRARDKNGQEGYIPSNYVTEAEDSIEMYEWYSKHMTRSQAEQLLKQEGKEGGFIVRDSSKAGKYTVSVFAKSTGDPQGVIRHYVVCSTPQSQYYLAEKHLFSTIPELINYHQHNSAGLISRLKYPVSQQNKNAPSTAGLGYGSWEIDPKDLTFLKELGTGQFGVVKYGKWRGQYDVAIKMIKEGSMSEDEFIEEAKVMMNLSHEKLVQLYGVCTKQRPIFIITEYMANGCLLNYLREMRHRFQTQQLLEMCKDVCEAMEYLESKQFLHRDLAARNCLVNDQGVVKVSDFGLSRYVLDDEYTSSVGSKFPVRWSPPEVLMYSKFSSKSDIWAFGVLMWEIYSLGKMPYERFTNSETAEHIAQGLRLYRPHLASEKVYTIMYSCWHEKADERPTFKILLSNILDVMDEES
UniProt Q9UQM7, whole entry: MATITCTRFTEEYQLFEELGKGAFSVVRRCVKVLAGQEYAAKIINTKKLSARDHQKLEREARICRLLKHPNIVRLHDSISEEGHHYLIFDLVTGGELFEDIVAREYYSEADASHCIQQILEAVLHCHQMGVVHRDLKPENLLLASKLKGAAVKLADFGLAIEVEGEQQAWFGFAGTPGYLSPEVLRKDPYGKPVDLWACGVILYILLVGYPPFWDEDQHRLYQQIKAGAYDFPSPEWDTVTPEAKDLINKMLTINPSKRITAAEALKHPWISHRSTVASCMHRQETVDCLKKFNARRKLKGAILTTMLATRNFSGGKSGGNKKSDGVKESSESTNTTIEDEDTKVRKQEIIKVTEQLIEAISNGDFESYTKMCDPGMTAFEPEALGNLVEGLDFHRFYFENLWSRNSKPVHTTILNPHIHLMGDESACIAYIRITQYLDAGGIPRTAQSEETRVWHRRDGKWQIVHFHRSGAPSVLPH
UniProt Q15131: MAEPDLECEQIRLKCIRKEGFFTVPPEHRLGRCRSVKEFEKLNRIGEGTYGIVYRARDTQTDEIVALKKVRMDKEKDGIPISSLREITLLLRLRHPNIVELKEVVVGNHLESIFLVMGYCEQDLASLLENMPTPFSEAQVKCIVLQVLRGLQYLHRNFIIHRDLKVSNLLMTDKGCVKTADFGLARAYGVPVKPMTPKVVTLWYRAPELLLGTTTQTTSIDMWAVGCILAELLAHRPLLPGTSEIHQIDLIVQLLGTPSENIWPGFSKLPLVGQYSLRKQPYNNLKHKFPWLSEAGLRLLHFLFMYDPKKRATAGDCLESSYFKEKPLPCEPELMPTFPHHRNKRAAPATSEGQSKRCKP
UniProt Q00526: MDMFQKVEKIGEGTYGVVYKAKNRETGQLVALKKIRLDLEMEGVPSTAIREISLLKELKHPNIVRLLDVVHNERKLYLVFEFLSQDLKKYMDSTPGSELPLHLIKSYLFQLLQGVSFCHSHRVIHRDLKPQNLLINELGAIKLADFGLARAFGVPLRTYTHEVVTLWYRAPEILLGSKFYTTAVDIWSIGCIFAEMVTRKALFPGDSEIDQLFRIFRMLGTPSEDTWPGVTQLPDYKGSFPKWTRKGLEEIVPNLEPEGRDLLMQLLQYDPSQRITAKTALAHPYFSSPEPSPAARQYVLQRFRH
UniProt P11802: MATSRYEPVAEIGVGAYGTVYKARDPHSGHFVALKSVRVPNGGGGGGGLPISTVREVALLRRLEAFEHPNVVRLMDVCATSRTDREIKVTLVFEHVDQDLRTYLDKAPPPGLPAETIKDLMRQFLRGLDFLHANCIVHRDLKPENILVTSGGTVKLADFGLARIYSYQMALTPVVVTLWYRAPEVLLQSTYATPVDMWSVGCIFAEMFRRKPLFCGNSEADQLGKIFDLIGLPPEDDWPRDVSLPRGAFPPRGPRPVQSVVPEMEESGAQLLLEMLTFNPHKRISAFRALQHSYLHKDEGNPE
UniProt Q00535, whole entry, looked up: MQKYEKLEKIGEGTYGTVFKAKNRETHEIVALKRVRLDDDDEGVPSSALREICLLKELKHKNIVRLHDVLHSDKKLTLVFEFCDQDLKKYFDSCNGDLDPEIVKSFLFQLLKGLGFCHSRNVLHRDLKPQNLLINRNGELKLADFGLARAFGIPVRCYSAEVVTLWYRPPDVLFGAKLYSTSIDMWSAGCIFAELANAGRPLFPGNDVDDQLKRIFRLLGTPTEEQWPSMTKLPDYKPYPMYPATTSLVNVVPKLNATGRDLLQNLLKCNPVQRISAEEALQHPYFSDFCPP
UniProt Q00534, whole entry: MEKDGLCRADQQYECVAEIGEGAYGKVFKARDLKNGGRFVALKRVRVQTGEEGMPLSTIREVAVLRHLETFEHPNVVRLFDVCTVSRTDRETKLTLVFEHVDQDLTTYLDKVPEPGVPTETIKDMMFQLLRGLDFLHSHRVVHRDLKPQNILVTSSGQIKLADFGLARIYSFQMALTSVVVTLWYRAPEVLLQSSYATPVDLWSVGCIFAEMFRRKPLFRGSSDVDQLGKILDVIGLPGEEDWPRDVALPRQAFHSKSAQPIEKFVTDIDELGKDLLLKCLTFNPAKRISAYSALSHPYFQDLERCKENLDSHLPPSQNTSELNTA

Experiments:
Test in all cases: kinase-Nluc reporter destabilization hit call (1 = scored as downregulated) (binary); higher = compound decreases kinase abundance
Settings in all cases: 10 µM; K562; 2-18 h
ABL1 = ABL1 (UniProt P00519)
AKT1 = AKT1 (UniProt P31749)
ALK = ALK (UniProt Q9UM73)
ARAF = ARAF (UniProt P10398)
AURKA = AURKA (UniProt O14965)
AURKB = AURKB (UniProt Q96GD4)
AURKC = AURKC (UniProt Q9UQB9)
BLK = BLK (UniProt P51451)
BMX = BMX (UniProt P51813)
BRAF = BRAF (UniProt P15056)
BRAF_V600E = test system: BRAF_V600E
BTK = BTK (UniProt Q06187)
CAMK2A = CAMK2A (UniProt Q9UQM7)
CAMK2G = CAMK2G (UniProt Q13555)
CDK10 = CDK10 (UniProt Q15131)
CDK2 = CDK2 (UniProt P24941)
CDK3 = CDK3 (UniProt Q00526)
CDK4 = CDK4 (UniProt P11802)
CDK5 = CDK5 (UniProt Q00535)
CDK6 = CDK6 (UniProt Q00534)

Measured: kinase-Nluc reporter destabilization hit call

O=C(Nc1cnn2ccc(N3CCC[C@@H]3c3cc(F)ccc3F)nc12)N1CC[C@H](O)C1 [Larotrectinib]
inactive: ABL1 = 0 | AKT1 = 0 | ALK 0 | ARAF 0 | AURKA 0 | AURKB 0 | AURKC 0 | BLK 0 | BMX 0 | BRAF 0 | BRAF_V600E 0 | BTK 0 | CAMK2A 0 | CAMK2G 0 | CDK10 = 0 | CDK2 = 0 | CDK3 = 0 | CDK4 = 0 | CDK5 = 0 | CDK6 = 0

COc1ccc2c(c1)C(c1ccc(F)cc1)=C(CN1CCCC1)CO2 [AX-024 hydrochloride]
inactive: ABL1 = 0 | AKT1 = 0 | ALK 0 | ARAF 0 | AURKA 0 | AURKB 0 | AURKC 0 | BLK 0 | BMX 0 | BRAF 0 | BRAF_V600E 0 | BTK 0 | CAMK2A 0 | CAMK2G 0 | CDK10 = 0 | CDK2 = 0 | CDK3 = 0 | CDK4 = 0 | CDK5 = 0 | CDK6 = 0

Cn1ncc(Cl)c1-c1cc(C(=O)N[C@H](CN)Cc2cccc(F)c2)sc1Cl [Afuresertib]
active: BLK 1
inactive: ABL1 = 0 | AKT1 = 0 | ALK 0 | ARAF 0 | AURKA 0 | AURKB 0 | AURKC 0 | BMX 0 | BRAF 0 | BRAF_V600E 0 | BTK 0 | CAMK2A 0 | CAMK2G 0 | CDK10 = 0 | CDK2 = 0 | CDK3 = 0 | CDK4 = 0 | CDK5 = 0 | CDK6 = 0

COc1cc2c(cc1OC)-c1c(C)c3ccc(OC)c(OC)c3c[n+]1CC2 [Dehydrocorydaline]
inactive: ABL1 = 0 | AKT1 = 0 | ALK 0 | ARAF 0 | AURKA 0 | AURKB 0 | AURKC 0 | BLK 0 | BMX 0 | BRAF 0 | BRAF_V600E 0 | BTK 0 | CAMK2A 0 | CAMK2G 0 | CDK10 = 0 | CDK2 = 0 | CDK3 = 0 | CDK4 = 0 | CDK5 = 0 | CDK6 = 0

O=C(c1ccc(F)c(F)c1Nc1ccc(I)cc1F)N1CC(O)([C@@H]2CCCCN2)C1 [Cobimetinib (hemifumarate)]
inactive: ABL1 = 0 | AKT1 = 0 | ALK 0 | ARAF 0 | AURKA 0 | AURKB 0 | AURKC 0 | BLK 0 | BMX 0 | BRAF 0 | BRAF_V600E 0 | BTK 0 | CAMK2A 0 | CAMK2G 0 | CDK10 = 0 | CDK2 = 0 | CDK3 = 0 | CDK4 = 0 | CDK5 = 0 | CDK6 = 0

CC(C)NC[C@@H](C(=O)N1CCN(c2ncnc3c2[C@H](C)C[C@H]3O)CC1)c1ccc(Cl)cc1 [Ipatasertib (dihydrochloride)]
inactive: ABL1 = 0 | AKT1 = 0 | ALK 0 | ARAF 0 | AURKA 0 | AURKB 0 | AURKC 0 | BLK 0 | BMX 0 | BRAF 0 | BRAF_V600E 0 | BTK 0 | CAMK2A 0 | CAMK2G 0 | CDK10 = 0 | CDK2 = 0 | CDK3 = 0 | CDK4 = 0 | CDK5 = 0 | CDK6 = 0

CNc1ncc2cc(-c3ccc(-c4cccc(C)n4)cc3Cl)c(=O)n(C[C@H]3OC[C@H](N)CO3)c2n1
inactive: ABL1 = 0 | AKT1 = 0 | ALK 0 | ARAF 0 | AURKA 0 | AURKB 0 | AURKC 0 | BLK 0 | BMX 0 | BRAF 0 | BRAF_V600E 0 | BTK 0 | CAMK2A 0 | CAMK2G 0 | CDK10 = 0 | CDK2 = 0 | CDK3 = 0 | CDK4 = 0 | CDK5 = 0 | CDK6 = 0

CC(C)NC[C@@H](C(=O)N1CCN(c2ncnc3c2[C@H](C)C[C@H]3O)CC1)c1ccc(Cl)cc1 [Ipatasertib]
inactive: ABL1 = 0 | AKT1 = 0 | ALK 0 | ARAF 0 | AURKA 0 | AURKB 0 | AURKC 0 | BLK 0 | BMX 0 | BRAF 0 | BRAF_V600E 0 | BTK 0 | CAMK2A 0 | CAMK2G 0 | CDK10 = 0 | CDK2 = 0 | CDK3 = 0 | CDK4 = 0 | CDK5 = 0 | CDK6 = 0
